The source of these data is paper doi:10.1101/583740 (bioRxiv, 2019).

The assay addresses T1, HA-SIRT1 (sirtuin type 1) (UniProt Q923E4).
T1 sequence: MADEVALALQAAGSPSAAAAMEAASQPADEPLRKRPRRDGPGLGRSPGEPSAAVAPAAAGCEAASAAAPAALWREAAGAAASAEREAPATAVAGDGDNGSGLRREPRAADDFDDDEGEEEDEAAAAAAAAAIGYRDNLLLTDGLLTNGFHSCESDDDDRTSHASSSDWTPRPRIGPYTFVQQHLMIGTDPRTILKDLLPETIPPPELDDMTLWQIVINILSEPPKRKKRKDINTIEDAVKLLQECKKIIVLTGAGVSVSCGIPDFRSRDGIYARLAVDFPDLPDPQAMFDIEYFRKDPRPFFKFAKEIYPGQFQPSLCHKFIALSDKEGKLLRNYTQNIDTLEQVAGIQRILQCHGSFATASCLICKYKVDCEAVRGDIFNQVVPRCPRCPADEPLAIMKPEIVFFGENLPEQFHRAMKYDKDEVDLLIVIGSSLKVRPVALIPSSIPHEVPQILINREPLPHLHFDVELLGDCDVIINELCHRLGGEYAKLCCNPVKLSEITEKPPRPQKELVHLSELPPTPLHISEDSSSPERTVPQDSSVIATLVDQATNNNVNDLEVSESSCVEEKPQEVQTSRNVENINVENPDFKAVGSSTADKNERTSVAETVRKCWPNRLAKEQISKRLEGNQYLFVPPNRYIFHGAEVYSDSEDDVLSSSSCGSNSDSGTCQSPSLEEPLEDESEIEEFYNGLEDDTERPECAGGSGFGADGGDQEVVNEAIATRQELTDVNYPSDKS
Briefly: co-IP.

These are yes or no findings as the source states them, for the method shown. In cells and extracts the contact can be indirect. Binding can be weak; no strength is given. Where a sequence is shown, tags or fusion partners need not be part of it.

On to “TRPC3-C (659-836aa) (from UniProt Q9QZC1) (domain or fragment)”, for which the binding result is given as “binds”.
